Experimental data: PubChem BioAssay AID264 (DTP/NCI, 2004)
The list does not hold the whole screen: it gathers some chemical classes. Not every dose and run of a compound is shown. T/C gives the treated animals as a percentage of the vehicle group. Schedules are NCI's codes, read here as Q, the interval in days (D) or hours (H), X, the number of doses.

System: nude mice, LX-1 lung xenograft intrarenal, tumor weight T/C
Test: NCI In Vivo Anticancer Drug Screen. Data for tumor model Human Lung LX-1 Xenograft (intrarenal inoculation) in NU/NU Swiss (nude) mice
Conditions: T/C endpoint: mean tumor weight change; dose: 0.25 mg/kg/injection; schedule: Q01DX010 (sc); vehicle: saline; evaluated on day 11; higher T/C = larger tumour
Protocol: The antitumor activity of compounds was measured in mice bearing transplantable tumors. Survival or tumor size were measured and the results are expressed as the measurement made in the treated group (T) divided by the measurement made in the vehicle treated control group (C). The tumor model used in this assay is Human Lung LX-1 Xenograft (intrarenal inoculation) in NU/NU Swiss (nude) mice

CN(CCCl)CCCl
T/C: 190 % of control
